Here are results for three substances from doi:10.1101/2025.09.10.675342.

Amino acid sequences for entries named in this document (tags omitted). Residues count along the entry.
UniProt P78324, residues 31-504: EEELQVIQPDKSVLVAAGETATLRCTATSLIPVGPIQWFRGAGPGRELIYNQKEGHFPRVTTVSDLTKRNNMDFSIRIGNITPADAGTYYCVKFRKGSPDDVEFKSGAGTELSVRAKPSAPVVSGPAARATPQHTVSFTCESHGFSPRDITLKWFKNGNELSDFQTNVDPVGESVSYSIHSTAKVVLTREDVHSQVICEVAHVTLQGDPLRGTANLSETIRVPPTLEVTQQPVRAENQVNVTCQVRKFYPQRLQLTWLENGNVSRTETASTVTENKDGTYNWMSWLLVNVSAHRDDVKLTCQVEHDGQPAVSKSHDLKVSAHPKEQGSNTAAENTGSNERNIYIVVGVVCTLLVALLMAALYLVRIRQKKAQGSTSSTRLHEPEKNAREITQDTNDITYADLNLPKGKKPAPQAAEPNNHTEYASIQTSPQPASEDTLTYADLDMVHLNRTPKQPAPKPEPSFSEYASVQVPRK
UniProt Q15116, residues 25-288: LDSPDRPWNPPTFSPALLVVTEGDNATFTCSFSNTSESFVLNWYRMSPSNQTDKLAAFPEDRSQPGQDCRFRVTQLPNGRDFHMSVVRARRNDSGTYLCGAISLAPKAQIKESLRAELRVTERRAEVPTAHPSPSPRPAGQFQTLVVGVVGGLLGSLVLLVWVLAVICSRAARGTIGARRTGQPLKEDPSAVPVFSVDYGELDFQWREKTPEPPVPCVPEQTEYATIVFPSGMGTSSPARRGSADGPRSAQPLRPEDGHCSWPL
UniProt Q8NHL6, residues 24-650: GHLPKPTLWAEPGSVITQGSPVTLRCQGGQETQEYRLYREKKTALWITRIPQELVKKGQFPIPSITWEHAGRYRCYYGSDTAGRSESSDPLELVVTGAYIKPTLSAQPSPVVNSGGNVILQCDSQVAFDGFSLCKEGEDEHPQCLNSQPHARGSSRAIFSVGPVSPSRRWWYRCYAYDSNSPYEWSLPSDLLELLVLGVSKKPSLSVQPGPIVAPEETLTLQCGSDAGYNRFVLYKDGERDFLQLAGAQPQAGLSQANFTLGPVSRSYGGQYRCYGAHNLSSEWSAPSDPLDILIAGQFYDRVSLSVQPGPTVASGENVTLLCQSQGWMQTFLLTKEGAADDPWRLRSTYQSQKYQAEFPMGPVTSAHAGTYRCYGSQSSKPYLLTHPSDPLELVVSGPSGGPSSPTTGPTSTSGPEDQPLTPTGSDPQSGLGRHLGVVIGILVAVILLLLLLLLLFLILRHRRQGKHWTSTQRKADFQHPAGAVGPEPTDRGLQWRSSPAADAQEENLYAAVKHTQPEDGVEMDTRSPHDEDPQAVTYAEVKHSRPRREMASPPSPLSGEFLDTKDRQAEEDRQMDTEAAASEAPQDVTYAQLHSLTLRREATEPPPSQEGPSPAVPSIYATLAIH
UniProt P05555, residues 17-1153: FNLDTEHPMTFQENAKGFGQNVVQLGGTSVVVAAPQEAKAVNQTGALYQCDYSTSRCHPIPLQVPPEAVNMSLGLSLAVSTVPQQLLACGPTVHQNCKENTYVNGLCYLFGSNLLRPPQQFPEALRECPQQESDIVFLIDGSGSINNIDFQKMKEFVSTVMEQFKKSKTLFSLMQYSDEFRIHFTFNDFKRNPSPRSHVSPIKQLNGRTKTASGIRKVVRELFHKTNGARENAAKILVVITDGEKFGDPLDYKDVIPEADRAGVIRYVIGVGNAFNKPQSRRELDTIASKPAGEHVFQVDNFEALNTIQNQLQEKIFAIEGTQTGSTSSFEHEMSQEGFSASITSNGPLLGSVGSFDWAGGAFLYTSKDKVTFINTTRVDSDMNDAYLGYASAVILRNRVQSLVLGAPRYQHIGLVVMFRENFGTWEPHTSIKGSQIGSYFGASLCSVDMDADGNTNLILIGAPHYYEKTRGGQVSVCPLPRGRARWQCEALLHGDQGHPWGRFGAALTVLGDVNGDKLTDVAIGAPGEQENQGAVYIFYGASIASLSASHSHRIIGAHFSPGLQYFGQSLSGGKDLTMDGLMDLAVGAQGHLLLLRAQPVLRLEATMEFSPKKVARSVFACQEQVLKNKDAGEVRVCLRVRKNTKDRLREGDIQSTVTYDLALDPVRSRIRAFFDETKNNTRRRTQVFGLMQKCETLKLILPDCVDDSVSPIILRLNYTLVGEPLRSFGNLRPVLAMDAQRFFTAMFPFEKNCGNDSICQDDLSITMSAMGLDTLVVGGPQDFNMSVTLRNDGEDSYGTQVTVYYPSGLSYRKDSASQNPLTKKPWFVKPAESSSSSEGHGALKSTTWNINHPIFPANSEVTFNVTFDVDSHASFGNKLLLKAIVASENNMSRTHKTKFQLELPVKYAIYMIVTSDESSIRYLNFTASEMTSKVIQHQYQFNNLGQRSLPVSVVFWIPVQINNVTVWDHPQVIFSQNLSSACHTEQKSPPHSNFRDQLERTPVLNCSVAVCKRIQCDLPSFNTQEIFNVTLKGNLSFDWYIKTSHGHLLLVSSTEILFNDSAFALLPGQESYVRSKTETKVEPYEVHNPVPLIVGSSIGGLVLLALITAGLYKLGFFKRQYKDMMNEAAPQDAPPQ
UniProt P05107, residues 23-769: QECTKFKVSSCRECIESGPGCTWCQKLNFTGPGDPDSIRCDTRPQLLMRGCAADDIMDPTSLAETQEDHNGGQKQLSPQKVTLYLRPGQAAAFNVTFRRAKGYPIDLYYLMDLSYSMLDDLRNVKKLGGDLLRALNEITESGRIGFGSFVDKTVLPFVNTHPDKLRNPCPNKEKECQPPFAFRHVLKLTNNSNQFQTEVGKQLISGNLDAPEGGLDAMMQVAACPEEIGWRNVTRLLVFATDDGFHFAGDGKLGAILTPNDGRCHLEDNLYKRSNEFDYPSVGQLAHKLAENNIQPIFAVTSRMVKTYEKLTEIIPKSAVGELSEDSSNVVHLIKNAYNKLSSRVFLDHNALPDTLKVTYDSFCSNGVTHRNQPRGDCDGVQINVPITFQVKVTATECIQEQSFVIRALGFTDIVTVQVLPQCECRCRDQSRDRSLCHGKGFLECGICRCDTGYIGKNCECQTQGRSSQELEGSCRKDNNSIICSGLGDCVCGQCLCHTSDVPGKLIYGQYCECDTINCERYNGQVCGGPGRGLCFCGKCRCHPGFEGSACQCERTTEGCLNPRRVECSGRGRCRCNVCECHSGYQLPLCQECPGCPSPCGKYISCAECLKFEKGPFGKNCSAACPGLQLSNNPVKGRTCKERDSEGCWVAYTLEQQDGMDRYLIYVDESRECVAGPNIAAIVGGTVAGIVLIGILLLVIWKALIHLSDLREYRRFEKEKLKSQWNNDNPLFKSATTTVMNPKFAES
UniProt P11835, residues 24-771: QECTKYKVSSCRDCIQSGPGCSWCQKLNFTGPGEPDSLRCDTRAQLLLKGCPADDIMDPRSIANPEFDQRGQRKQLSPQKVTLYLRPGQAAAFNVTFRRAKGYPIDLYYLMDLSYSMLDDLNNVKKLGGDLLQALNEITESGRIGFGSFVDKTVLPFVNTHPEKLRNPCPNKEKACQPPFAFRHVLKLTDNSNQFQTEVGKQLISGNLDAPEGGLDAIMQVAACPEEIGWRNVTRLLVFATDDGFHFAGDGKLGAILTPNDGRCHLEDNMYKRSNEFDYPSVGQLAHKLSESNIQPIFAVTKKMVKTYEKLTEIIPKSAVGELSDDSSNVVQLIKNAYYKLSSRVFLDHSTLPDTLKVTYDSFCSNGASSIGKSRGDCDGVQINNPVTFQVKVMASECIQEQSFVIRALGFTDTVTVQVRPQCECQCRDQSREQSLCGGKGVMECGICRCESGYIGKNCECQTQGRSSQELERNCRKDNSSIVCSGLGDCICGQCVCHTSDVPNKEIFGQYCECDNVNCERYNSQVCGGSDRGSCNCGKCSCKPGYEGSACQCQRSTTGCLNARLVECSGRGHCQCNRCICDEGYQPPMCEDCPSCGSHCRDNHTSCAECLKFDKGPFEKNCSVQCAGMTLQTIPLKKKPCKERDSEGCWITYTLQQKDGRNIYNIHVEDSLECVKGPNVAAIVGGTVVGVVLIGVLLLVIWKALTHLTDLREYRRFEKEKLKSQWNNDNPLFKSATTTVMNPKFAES

In experiment [1] the target is T1, CLIP-tagged mouse SLAMF7 (donor-labeled SLAMF7) (mouse) (UniProt Q8BHK6).
T1 sequence (chain, CLIP-Surface 547 on the CLIP tag): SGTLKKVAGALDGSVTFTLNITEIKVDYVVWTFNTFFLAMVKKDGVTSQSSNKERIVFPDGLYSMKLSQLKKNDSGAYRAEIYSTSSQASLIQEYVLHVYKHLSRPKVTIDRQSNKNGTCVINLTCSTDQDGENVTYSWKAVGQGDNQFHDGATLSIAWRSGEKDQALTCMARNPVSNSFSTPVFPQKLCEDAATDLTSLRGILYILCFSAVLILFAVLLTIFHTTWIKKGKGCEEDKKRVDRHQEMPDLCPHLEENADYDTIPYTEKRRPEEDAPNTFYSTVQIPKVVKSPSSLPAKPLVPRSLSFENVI
As to the kind of experiment: FRET or BRET. For orientation: BRET reads energy transfer from a luciferase to a nearby fluorophore.

In experiment [2] the target is T1, CLIP-tagged mouse SLAMF7 (donor-labeled SLAMF7) (mouse). As to the kind of experiment: FRET or BRET. The source holds these as a separate data set.
Experiment [3] addresses T2, CLIP-tagged human 2B4 (SLAMF4) (donor-labeled) (human) (UniProt Q9BZW8).
T2 sequence (chain, CLIP-Surface 547 on the CLIP tag): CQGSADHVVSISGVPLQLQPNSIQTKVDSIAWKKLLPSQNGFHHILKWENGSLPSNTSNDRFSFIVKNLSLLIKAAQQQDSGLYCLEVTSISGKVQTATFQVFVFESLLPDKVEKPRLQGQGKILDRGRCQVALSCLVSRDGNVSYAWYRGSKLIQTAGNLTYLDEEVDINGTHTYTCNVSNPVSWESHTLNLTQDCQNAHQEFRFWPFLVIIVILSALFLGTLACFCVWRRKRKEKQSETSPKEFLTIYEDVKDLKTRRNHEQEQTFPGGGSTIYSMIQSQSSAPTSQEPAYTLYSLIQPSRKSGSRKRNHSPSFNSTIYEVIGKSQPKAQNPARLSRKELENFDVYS
The experiment is described as follows: FRET or BRET.

Experiment [4] has as its target CLIP-tagged human SIRPα version (V) 1 (donor-labeled) (human) (UniProt P78324). The experiment is described as follows: FRET or BRET.
The target in experiment [5] is CLIP-tagged human PD-1 (donor-labeled) (human) (UniProt Q15116). The experiment is described as follows: FRET or BRET.
Experiment [6] deals with CLIP-tagged human LILRB1 (donor-labeled) (human) (UniProt Q8NHL6). The experiment is described as follows: FRET or BRET.
Experiment [7] addresses T3, mouse SIRPα^R91T in SIRPα KO BMDMs (mouse) (UniProt P97797).
T3 sequence: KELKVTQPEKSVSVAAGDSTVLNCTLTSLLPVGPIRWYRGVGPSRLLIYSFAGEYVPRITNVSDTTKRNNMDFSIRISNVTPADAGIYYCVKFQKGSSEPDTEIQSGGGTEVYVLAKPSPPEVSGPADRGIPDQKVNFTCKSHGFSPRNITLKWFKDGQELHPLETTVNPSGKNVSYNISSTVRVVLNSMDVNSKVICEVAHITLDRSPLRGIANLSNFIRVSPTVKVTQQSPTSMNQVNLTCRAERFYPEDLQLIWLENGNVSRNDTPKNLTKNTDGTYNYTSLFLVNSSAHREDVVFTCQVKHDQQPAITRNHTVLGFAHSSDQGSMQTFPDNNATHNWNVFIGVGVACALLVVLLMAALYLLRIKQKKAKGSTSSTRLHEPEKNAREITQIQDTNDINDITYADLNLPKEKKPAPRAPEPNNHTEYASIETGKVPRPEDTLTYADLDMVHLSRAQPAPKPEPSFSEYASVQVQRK
As to the kind of experiment: proximity ligation.

For experiment [8], the target named is T4, mouse SIRPα, wild type, re-expressed in SIRPα KO BMDMs (mouse) (UniProt P97797).
T4 sequence: T3 sequence with T60R
The experiment is described as follows: proximity ligation.

Experiment [9] deals with T5, SIRPα (endogenous, mouse BMDMs) (mouse (endogenous in BMDMs)) (UniProt P97797).
T5 sequence: T3 sequence with T60R
As to the kind of experiment: proximity ligation.

The target in experiment [10] is T6, mouse SIRPα^T96V in SIRPα KO BMDMs (mouse) (UniProt P97797).
T6 sequence: T3 sequence with T60R, T65V
The experiment is described as follows: proximity ligation.

Experiment [11] has as its target T5, SIRPα (endogenous, mouse BMDMs) (mouse (endogenous in BMDMs)). The experiment is described as follows: co-IP.

Numbering of substitutions follows the chain as printed. Read-outs that look alike come from different tables or passages of the source. These are yes or no findings as the source states them, for the method shown. In cells and extracts the contact can be indirect. Some binding calls cover weakened binding; strength is not graded here. For some assays here: Tags and fused reporters may be left off the sequences shown.

“SNAP-tagged mouse CD11b (acceptor-labeled CD11b) (from UniProt P05555 17-1153) (receptor)”: the values for the binding result in experiment [1] and in experiment [2] were “no binding (condition: with CD11b mAbs)” and “binds”, respectively.

“SNAP-tagged human CD18 (acceptor-labeled human CD18) (from UniProt P05107 23-769) (receptor)”: the binding result in experiment [3], in [4], in experiment [5] and in experiment [6] was “binds” in each case.

For the substance “CD18 (β2 integrin) (endogenous, mouse BMDMs) (from UniProt P11835 24-771) (receptor)”, the binding result in [7] is given as “no binding”; in experiment [8], “binds”; in experiment [9], “binds”; in experiment [10] it was “binds”; in [11] it was “binds”.
